The name of at least one read-out is uncertain.
How the values were obtained:
livers of rats = experiment: Signature Projection Score (SPS): match of liver gene expression to the Cholesterol Reduction Signature; format: in vivo; conditions: dose 1480 (mg/ml), rat liver, maximum of training treatments = 100
Description: (§1) After determination of the MTD and FED for a compound, each compound was dissolved in a vehicle for administration on day 1 of the study (additional daily doses were stored as frozen aliquots from this initial formulation). Each compound was administered to three individual male Sprague-Dawley rats for each of the two doses (MTD and FED) for one of four different times (0.25 day, 1 day, 3 days, and 5 days), yielding a total of up to 24 animals per compound study. Vehicle choice was based on solubility of the compound, effect of food on adsorption, and the vehicles used in the literature reports examined during the FED selection investigations, described above. Generally, the route and vehicle in which the FED was defined are used. When there was a choice of routes and vehicles, oral routes were chosen over injection routes. Many compounds, especially oncolytics, are only administerable intravenously. In such cases, the compound was administered as an intravenous formulation into the tail vein. Orally administered compounds were given dissolved in either water, 1% carboxymethycellulose (CMC) or corn oil. Intravenously and intraperitoneally administered compounds were given in 0.9% saline. Subcutaneously administered compounds were given in corn oil. Animal body weights were determined at 1 day and, where appropriate, at 4 days, before necropsy, and clinical observations were made on a daily basis. […]
(§2) Tissue harvest and handling: After the allocated treatment time, the tissues from the animals were harvested. […] The following blood constituents were measured: Blood Urea Nitrogen (BUN), Creatinine (CRE), Glucose (GLU), Alanine Transaminase (ALT), Aspartate Aminotrans-ferase (AST), Alkaline Phosphatase (ALP), Total Bilirubin (TBI), Sodium (SOD), Potassium (POT), Chloride (CHL), Phosphorus (PHO), Total Protein (TPR), Albumin (ALB), Cholesterol (CHO), Creatine Phosphokinase (CPK), Lactate Dehydrogenase (LDH), Carbon Dioxide (CO2), Uric Acid (UA), and Lipase. […] The parameters were measured using a Baker 9000 blood cell analysis instrument according to the manufactures instructions. […]

male Sprague-Dawley rats = experiment: Cholesterol Lowering Index: total blood cholesterol (clinical chemistry) in treated versus vehicle-treated rats; format: in vivo, rat; conditions: for Chol index (fold reduction): vs vehicle
Excerpt: Compound dosing was based on the acute dose LD50s recorded in published reference or literature sources. […] The MTD (maximum tolerated dose) was then selected as the dose at which the animals […] 5-10% body weight during the 5-day range finding study. […] In addition, the clinical observations must show no or mild clinical signs during the whole of the range-finding study. At the next highest dose, signs and symptoms of adverse effects and exceeding those of the MTD should be seen to occur. Should these criteria not be met, the range-finding study is repeated using a modified dose range.
as §1, with “Orally administered compounds were given dissolved in either water, 1% carboxymethycellulose (CMC) or corn oil. Intravenously and intraperitoneally administered compounds were given in 0.9% saline. Subcutaneously administered compounds were given in corn oil.” left out
as §2, with “instructions. The following blood constituents were measured: Leukocyte count (WBC), Differential Leukocyte counts, Erythrocyte count (RBC), Hemoglobin concentration (HGB), Hematocrit (HCT), Mean Corpuscular Volume (MCV), Mean Corpuscular Hemoglobin (MCH), Mean Corpuscular Hemoglobin Concentration (MCC), Thrombocyte Count (PLC).” for “instructions.”

C#C[C@]1(O)CC[C@H]2[C@@H]3CCc4cc(O)ccc4[C@H]3CC[C@@]21C [ETHINYLESTRADIOL, (17α)-norpregna-1,3,5(10)-trien-20-yne-3,17-diol]
SPS (livers of rats; time point 1 day): 46.9
SPS (livers of rats; time point 3 days): 100
SPS (livers of rats; time point 5 days): 85.7
Cholesterol Index (fold reduction) (male Sprague-Dawley rats; Table 4, dose 1480, time point 3 days): 3.4 fold reduction
Cholesterol Index (fold reduction) (male Sprague-Dawley rats; Table 4, dose 1480, time point 5 days): 2.7 fold reduction
Chol index (fold reduction) (male Sprague-Dawley rats; dose 1480, time 3 days): 3.44 fold reduction
Chol index (fold reduction) (male Sprague-Dawley rats; dose 1480, time 5 days): 2.84 fold reduction

Reference: patent US7422854B1, “Cholesterol reduction signature” (priority 2002, dated 2008)
